# The whole screen tested about 580,000 compounds, of which about 6,100 (1.1%) were called active. Inconclusive results, whose numbers are uncertain, are shown with a selection of clear calls. Calls follow the shape of the dose curve; as a rule, active = well fitted inhibition curve with a large enough effect; inconclusive = small, poorly fitted or top-dose-only effect, or another doubt; inactive = no such curve, though single readings can be large or run the other way. Potencies beside an inconclusive call are fits to weak or partial responses and may not hold up.
# Sequences of proteins named here, by UniProt entry; tags and fusion partners are left off. A change or cut given only in a name is not applied to a line headed by its entry.
# UniProt P18054: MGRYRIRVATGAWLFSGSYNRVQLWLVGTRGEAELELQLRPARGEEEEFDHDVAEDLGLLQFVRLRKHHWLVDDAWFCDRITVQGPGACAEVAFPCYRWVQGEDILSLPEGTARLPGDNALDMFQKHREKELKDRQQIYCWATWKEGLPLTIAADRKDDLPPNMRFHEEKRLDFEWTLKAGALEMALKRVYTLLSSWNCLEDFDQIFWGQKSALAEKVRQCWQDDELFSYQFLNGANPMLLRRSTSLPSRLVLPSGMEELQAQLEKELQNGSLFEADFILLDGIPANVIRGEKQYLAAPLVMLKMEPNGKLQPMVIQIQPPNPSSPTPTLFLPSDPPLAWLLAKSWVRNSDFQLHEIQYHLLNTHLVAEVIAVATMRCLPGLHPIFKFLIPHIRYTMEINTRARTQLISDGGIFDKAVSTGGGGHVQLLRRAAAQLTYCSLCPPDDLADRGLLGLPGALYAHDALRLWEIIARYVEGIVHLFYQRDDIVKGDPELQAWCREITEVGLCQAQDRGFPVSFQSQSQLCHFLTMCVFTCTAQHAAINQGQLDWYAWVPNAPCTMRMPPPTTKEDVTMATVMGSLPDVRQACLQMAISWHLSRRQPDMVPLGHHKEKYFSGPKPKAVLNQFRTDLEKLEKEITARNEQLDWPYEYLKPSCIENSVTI
# Target: Polyunsaturated fatty acid lipoxygenase ALOX12 (Homo sapiens) (UniProt P18054)
# Assay: Primary qHTS assay for inhibitors of human arachidonate 12S-lipoxygenase (ALOX12): Round 2
# Settings: purified 12hLO, xylenol orange hydroperoxide absorbance; activity change, negative = inhibition: at 108 µM (top of the series) unless noted
# Outline: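 Purified human 12hLO (150 nM final) in 25 mM Hepes, 0.01% Triton X-100, pH 7.0 was preincubated 15 min at room temperature with compound. Then 40 uM arachidonic acid was added, 30 min. Hydroperoxide was read by Fe-XO absorbance ratio 573/405 nm.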
# % is scaled to controls: 0 for no effect and ±100 for the full control effect; potency is read from the fitted curve at half-maximal effect.
Structure (SMILES),Potency,"activity change, negative = inhibition"
CCNc1nc(-c2ccc3[nH]c(=O)oc3c2)cs1,"inconclusive: 39.8 µM [inhibitor, partial curve, poor fit]",
COc1ccc(Nc2cc3[nH]c(-c4ccccc4)cc3cn2)cc1,"inconclusive: 63.1 µM [inhibitor, partial curve, poor fit]",
O=c1cc(-c2ccccc2Cl)oc2c(NS(=O)(=O)c3cccc4nsnc34)ccc(O)c12,"inconclusive: 44.7 µM [inhibitor, partial curve, poor fit]",
Cc1ccc(C)c(NC(=O)CN2CCCN(Cc3cccc(Cl)c3)S2(=O)=O)c1,"inconclusive: 112 µM [inhibitor, partial curve, poor fit]",
CN(Cc1ccco1)c1ccnc(-c2cccc(NS(C)(=O)=O)c2)n1,"inconclusive: 7.94 µM [inhibitor, full curve, poor fit]",
Cc1ccc(C)c(OCC(=O)NCCNC(=O)COc2cc(C)ccc2C)c1,"inconclusive: 100 µM [inhibitor, partial curve, poor fit]",
O=C(N/N=C/c1c(O)n(-c2ccccc2Cl)c(=O)c2ccccc12)c1cccnc1,inactive,
CCN(CC)S(=O)(=O)c1cccc(NC(=O)COC(=O)c2cncc(Br)c2)c1,"inconclusive: 100 µM [inhibitor, single point]",
CCNC(=O)C1(C)CCCN(Cc2cc3ccccc3o2)C1 (stereo unspecified),"inconclusive: 39.8 µM [inhibitor, single point]",
Cc1ccc(-c2nc(-c3nc(-c4cccs4)cs3)sc2C)cc1C,"inconclusive: 56.2 µM [inhibitor, partial curve, poor fit]",
CCN(CC)C(=O)COc1ccc(-c2nnc(Nc3ccccc3)c3ccccc23)cc1,inactive,
COc1ccc(-n2c(SCC(=O)Nc3cc(C)on3)nc3c([nH]c4ccccc43)c2=O)cc1OC,"inconclusive: 35.5 µM [inhibitor, partial curve, poor fit]",
CN(C)Cc1nnc(C2CCN(C(=O)Nc3cccc(C#N)c3)CC2)n1C,"inconclusive: 79.4 µM [inhibitor, partial curve, poor fit]",
COc1cccc(-c2cnc3c(NC=O)cc(-c4ccc(OC)cc4OC)cn23)c1,inactive,
Cc1ccc(-n2c(C3CC3c3ccc(Cl)cc3)n[nH]c2=S)cc1 (stereo unspecified),"inconclusive: 44.7 µM [inhibitor, partial curve, poor fit]",
COc1ccc(CNC(=O)CCC(=O)N2CCN(S(=O)(=O)c3ccc(Cl)cc3)CC2)cc1,"inconclusive: 3.98 µM [inhibitor, full curve, poor fit]",
COc1ccc2[nH]c(=O)c(CN(C(=O)c3cccc(Cl)c3)c3ccccc3C)cc2c1,inactive,
COc1ccc(-n2c(=O)c(CCC(=O)N(C)Cc3ccccc3C)nc3ccccc32)cc1,"inconclusive: 112 µM [inhibitor, single point]",
Clc1ccc(-c2nc3cnccn3c2Nc2ccc3c(c2)OCO3)cc1,"inconclusive: 79.4 µM [inhibitor, partial curve, poor fit]",
COc1ccc(NC(=O)N2CCC(Cc3noc(C4CC4)n3)C2)cc1 (stereo unspecified),inactive,
FC(F)(F)c1ccc(Cl)c(N/N=C/C=C/c2ccccc2)c1,"inconclusive: 44.7 µM [inhibitor, partial curve, poor fit]",
CC(=O)O[C@@H](Cc1ccc(O)cc1)C(=O)CC(C)C,"inconclusive: 79.4 µM [inhibitor, single point]",

# Copied from above, 3 compounds:
Structure (SMILES),Potency,"activity change, negative = inhibition"
Cc1ccc(C)c(NC(=O)CN2CCCN(Cc3cccc(Cl)c3)S2(=O)=O)c1,"inconclusive: 112 µM [inhibitor, partial curve, poor fit]",
CN(Cc1ccco1)c1ccnc(-c2cccc(NS(C)(=O)=O)c2)n1,"inconclusive: 7.94 µM [inhibitor, full curve, poor fit]",
Cc1ccc(C)c(OCC(=O)NCCNC(=O)COc2cc(C)ccc2C)c1,"inconclusive: 100 µM [inhibitor, partial curve, poor fit]",

# Remaining list, next part:

Structure (SMILES),Potency,"activity change, negative = inhibition"
CC1(C)CC(=O)C(CSC(=O)c2ccccc2)C(=O)C1,"inconclusive: 31.6 µM [inhibitor, partial curve]",
CN(Cc1ccccc1)C(=O)C[C@@H]1CCNC[C@@H]1Cc1cc(CC2CCCCC2)on1,"inconclusive: 50.1 µM [inhibitor, partial curve, poor fit]",
CC(Cc1c[nH]c2ccccc12)C(=O)N1CCN(c2ccccc2F)CC1 (stereo unspecified),"inconclusive: 44.7 µM [inhibitor, single point]",
Fc1ccc(-c2csc(NCc3ccco3)n2)cc1,"inconclusive: 112 µM [inhibitor, single point]",
Cc1ccc(NC(=S)NNC(=O)c2ccc(N3CCOCC3)c([N+](=O)[O-])c2)cc1C,"inconclusive: 50.1 µM [inhibitor, partial curve, poor fit]",
CCC(=O)Nc1cccc(C(=O)Nc2nnc(C3CC(=O)N(c4ccc(C)c(C)c4)C3)s2)c1 (stereo unspecified),"inconclusive: 44.7 µM [inhibitor, partial curve, poor fit]",
COc1ccc2occ(CC(=O)Nc3ccc(S(=O)(=O)Nc4nccc(C)n4)cc3)c2c1,,inconclusive: -30.2% [inhibitor]
CC(c1ccccc1)N1CCn2c(nc3cc(NC(=O)NC4CCCCC4)ccc32)C1 (stereo unspecified),inactive,
CCc1nc2c(c(-c3ccc(OC)cc3)n1)CCN([S+](=O)([O-])c1ccc(N(C)C)cc1)CC2,"inconclusive: 100 µM [inhibitor, single point]",
FC(F)(F)c1ccc(NC(=S)NC2CCCCC2)cc1,inactive,
Cc1occc1-c1nnc(SCC(=O)Nc2ccccc2)n1CCc1ccccc1,"inconclusive: 79.4 µM [inhibitor, partial curve, poor fit]",
Cc1nn(C)cc1/C=C1\SC(=S)NC1=O,"inconclusive: 44.7 µM [inhibitor, partial curve]",
O=C(CN(C(=O)C1CSC(=O)C1)c1ccc(F)cc1)NCc1ccc2c(c1)OCO2 (stereo unspecified),"inconclusive: 112 µM [inhibitor, partial curve, poor fit]",
Cc1cc(/C=C2\SC(=S)NC2=O)c(C)n1C,"inconclusive: 17.8 µM [inhibitor, full curve]",
S=C(Nc1ccccc1Oc1ccccc1)Nc1cccc(Cl)c1Cl,active: 35.5 µM,
CC(=O)NS(=O)(=O)c1ccc(NC(=O)c2cccc(S(=O)(=O)N3CCc4ccccc43)c2)cc1,inactive,
CN1CCN(C2(CNC(=O)c3ccc(C(C)(C)C)cc3)CCCCC2)CC1,"inconclusive: 44.7 µM [inhibitor, full curve, poor fit]",
C/C(=N\NC(=O)C1CC1c1ccc(C(C)(C)C)cc1)c1ccc(F)cc1 (stereo unspecified),inactive,
CC(C(=O)NC1CCS(=O)(=O)C1)N1C(=O)/C(=C/c2ccc(Cl)cc2)SC1=S (stereo unspecified),active: 35.5 µM,
O=[N+]([O-])c1ccc(S(=O)(=O)NN=Cc2ccc3c(c2)OCO3)cc1,inactive,
CC(C(N)=O)N(C)Cc1ccc(C(=O)NCC(F)(F)F)cc1 (stereo unspecified),inactive,
O=Cc1cccn1-c1cc(Cl)ccc1Cl,inactive,

Structure (SMILES),Potency,"activity change, negative = inhibition"
Cc1cccc(C(=O)Oc2cccc3c(O)cccc23)c1,"inconclusive: 44.7 µM [inhibitor, partial curve, poor fit]",
CC(=O)CC1c2cc(F)ccc2C=C(c2ccsc2)N1c1ccc(-c2cccnc2)cc1 (stereo unspecified),"inconclusive: 44.7 µM [inhibitor, partial curve, poor fit]",
CCOC(=O)C1=C(CN(CCOC)Cc2ccco2)NC(=O)NC1c1ccc(C)cc1 (stereo unspecified),inactive,
CCCCc1nc2c(C)c(N)cnc2n1Cc1cccc([N+](=O)[O-])c1,"inconclusive: 100 µM [inhibitor, single point]",
CCc1cc2c(=O)c(-c3nc(C)cs3)coc2cc1OC(C)C(=O)NCCO (stereo unspecified),inactive,
Cc1cc(C(=O)NCc2cc(C(=O)O)co2)co1,inactive,
Cc1ccc(N(C)S(=O)(=O)c2ccc(C)cc2)cc1,inactive,
CCOc1ccc(C(=O)/C=C/c2cn(CC(O)CN3CCCCCC3)c3ccccc23)cc1 (stereo unspecified),"inconclusive: 70.8 µM [inhibitor, partial curve, poor fit]",
CC(C)(C)c1ccc(NS(=O)(=O)c2ccc(N)cc2)cc1,"inconclusive: 89.1 µM [inhibitor, partial curve, poor fit]",
O=c1[nH]c(=O)n(Cc2ccccc2)c2c1C(C(F)(F)F)(C(F)(F)F)N=C(c1ccccn1)N2,"inconclusive: 1 µM [inhibitor, full curve, poor fit]",
Cc1ccccc1OCc1ccc(-c2nc(C#N)c(NC3CC3)o2)o1,"inconclusive: 5.62 µM [inhibitor, full curve, poor fit]",
Fc1ccccc1/C=N/Nc1ncnc2nc[nH]c12,inactive,
O=S(=O)(NN=Cc1cccc(Cl)c1)c1ccccc1,"inconclusive: 63.1 µM [inhibitor, partial curve, poor fit]",
Cc1ccccc1CC1(CO)CCCN(Cc2ccccc2Cl)C1 (stereo unspecified),"inconclusive: 50.1 µM [inhibitor, partial curve, poor fit]",
O=C(Nc1ccc(Cl)cc1)c1ccncc1,"inconclusive: 112 µM [inhibitor, partial curve, poor fit]",
Cc1cccc(-c2c3c(=O)n(C)c(=O)n(C)c3cn2CCO)c1,"inconclusive: 126 µM [inhibitor, single point]",
O=C(NCc1ccccc1)c1ccc(-c2ccc(F)cc2)o1,inactive,
CC[N+](C)(CC)CC(C[N+](C)(CC)CC)OCc1ccccc1,active: 14.1 µM,
CCOC(=O)C1=C(COC(=O)/C=C/c2ccc(OC)c(OC)c2)NC(=O)NC1C (stereo unspecified),"inconclusive: 35.5 µM [inhibitor, partial curve, poor fit]",
Cc1sc2ncnc(NC(C)C(=O)O)c2c1C (stereo unspecified),inactive,
Cc1ccc(C2Cn3cnc(C(=O)N4CCC(C(=O)NCc5cc(F)ccc5F)CC4)c3CO2)cc1 (stereo unspecified),"inconclusive: 3.16 µM [inhibitor, full curve, poor fit]",
O=C(NCc1ccccn1)C1CCN(C(=O)C2(c3ccc(F)cc3)CC2)CC1,inactive,
